Measured values reported in PubChem BioAssay AID493014 (National Center for Advancing Translational Sciences (NCATS), 2011).
About 170 (0.05%) of roughly 340,000 compounds were called active. The shares of active, inactive and inconclusive entries below differ from those in the screen. Calls follow the shape of the dose curve; as a rule, active = well fitted inhibition curve with a large enough effect in the signal ratio, with a control signal flat (not every such curve was filed as active); inconclusive = small, poorly fitted or top-dose-only effect, or effect the other way, or a change in a side signal; inactive = flat fitted curve, though single readings scatter; the % refers to the signal ratio. A potency beside an inconclusive call is a rough fit, not a confirmed value.

Assay: qHTS Assay to Find Inhibitors of Chronic Active B-Cell Receptor Signaling;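 as to activity change, negative = inhibition: plate controls were basal doxycycline-induced cells for no effect and cells given 10 µM MG132 for full effect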
Conditions: ABC-DLBCL IkBa-CBG/CBR reporter, luminescence ratio (green luciferase fused to IkBa over red control in TMD8 lymphoma cells), 4 h
Method in brief: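 TMD8 ABC-DLBCL cells carrying doxycycline-inducible green luciferase fused to IkappaBalpha plus unfused red luciferase were exposed to compounds (up to 46 uM) for 4 hrs at 37C. Activity came from the overlap-corrected green/red luminescence ratio.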

[1] = activity change, negative = inhibition: at 46.1 µM (top of the series)
Potency is read from the fitted curve at half-maximal effect.

COc1ccc(C(=O)C2CCCN(Cc3cnc(C)s3)C2)c(OC)c1 (configuration not stated)
activity change, negative = inhibition [1]: inactive

CCCCCn1c(=O)c(C(=O)NCCc2ccccc2)c(O)c2ccccc21
activity change, negative = inhibition [1]: inactive

COC(=O)C1=C(c2cccc(C#N)c2)C[C@@H]2CC[C@H]1N2C(=O)NCCc1ccccc1
activity change, negative = inhibition [1]: inconclusive: -2.44%

CC(=O)OC[C@]12CCC(C)=C[C@H]1O[C@@H]1[C@H](O)[C@@H](OC(C)=O)[C@@]2(C)[C@]12CO2
activity change, negative = inhibition [1]: inconclusive: 0.658%

CCC(=NC(C)c1ccccc1)c1c(O)[nH]c(=O)[nH]c1=O (configuration not stated)
Potency [1]: inconclusive: 12.6 µM [falling, single point]

CCOc1cccc(OCC)c2c(C)[n+](CC3CCCO3)c(C)c1-2 (configuration not stated)
Potency [1]: inconclusive: 20.6 µM [falling, single point]

c1ccc2c(c1)OCC(C1=NCCN1)O2 (configuration not stated)
Potency [1]: inconclusive: 3.16 µM [falling, full curve]

O=C(CCC(=O)N1C[C@H]2C[C@@H](C1)c1cccc(=O)n1C2)NCc1ccccc1C(F)(F)F
activity change, negative = inhibition [1]: inconclusive: -15.9%

CCC1CO/C(=C(\C(Cl)=C(Cl)Cl)[N+](=O)[O-])N1Cc1ccc(Cl)nc1 (configuration not stated)
activity change, negative = inhibition [1]: inconclusive: 6.82%

O=C1CC(N2CC=C(c3ccc(F)cc3)CC2)C(=O)N1c1ccc(F)cc1 (configuration not stated)
activity change, negative = inhibition [1]: inconclusive: -16.9%

CC(=O)c1ccc2c(c1)C1C(Cl)C(Sc3ccccc3[N+](=O)[O-])CC1C(C(=O)O)N2 (configuration not stated)
activity change, negative = inhibition [1]: inactive

CN(C)c1ccc(-[n+]2c(-c3ccccc3)cc(-c3ccccc3)cc2-c2ccccc2)cc1
activity change, negative = inhibition [1]: inconclusive: -13.2%

CC1CCC(C(C)C)C(OC(=O)COC(=O)c2ccccc2N)C1 (configuration not stated)
activity change, negative = inhibition [1]: inconclusive: 8.92%

NS(=O)(=O)c1ccc(N=Nc2c(O)[nH]c(=S)[nH]c2=O)cc1
Potency [1]: inconclusive: 20 µM [falling, partial curve]

COC(=O)C1=C(c2cccc(OCc3ccccc3)c2)C[C@@H]2CC[C@H]1N2C(=O)NCc1ccc(C(C)(C)C)cc1
activity change, negative = inhibition [1]: inconclusive: 3.62%

O=C(N/N=C/c1c(O)n(-c2ccccc2)c(=S)[nH]c1=O)c1ccccc1
Potency [1]: inconclusive: 6.31 µM [falling, full curve]

O=C(COc1ccc(Cl)cc1)N(c1ccccc1Cl)C1CN2CCC1CC2 (configuration not stated)
activity change, negative = inhibition [1]: inactive

c1ccc(Nc2ccc(Nc3ccccc3)cc2)cc1
activity change, negative = inhibition [1]: inconclusive: -5.1%

COC(=O)C1=C(c2cccc(OCc3ccccc3)c2)C[C@@H]2CC[C@H]1N2C(=O)NCc1ccccc1
activity change, negative = inhibition [1]: inactive

C[C@@H]1O[C@@H](O[C@@H]2C=C3CCC4C(CC[C@]5(C)[C@@H](c6ccc(=O)oc6)CC[C@]45O)[C@@]3(C)CC2)[C@H](O)[C@H](O)[C@H]1O (some centres not stated)
activity change, negative = inhibition [1]: inconclusive: 4.27%

Cn1c(O)c(C2=NN(C(=O)CCl)C(c3ccccc3)C2)c(=O)n(C)c1=O (configuration not stated)
Potency [1]: inconclusive: 31.6 µM [falling, partial curve]

CN(C)c1ccc(Nc2ccc([N+](=O)[O-])cn2)cc1
activity change, negative = inhibition [1]: inconclusive: 7.47%

CC12CC[C@H]3[C@@H](CCC4(O)C[C@H](O)CCC34/C=N/NC(=O)c3ccccc3O)C1(O)CCC2C1=CC(=O)OC1 (some centres not stated)
Potency [1]: inconclusive: 31.6 µM [rising, single point]

CCCCn1c(O)c(C(CC)=Nc2ccc(C(=O)O)cc2)c(=O)[nH]c1=O
Potency [1]: inconclusive: 13 µM [falling, partial curve]

O=[N+]([O-])/C=C1\NCCN1Cc1ccc(Cl)nc1
activity change, negative = inhibition [1]: inactive

COC(=O)C1=C(c2ccc3ccccc3c2)C[C@@H]2CC[C@H]1N2C(=O)N1CCCC1
activity change, negative = inhibition [1]: inconclusive: -4.45%

COc1c(C)cc(C(=O)C2CCCN(Cc3ccccn3)C2)cc1C (configuration not stated)
activity change, negative = inhibition [1]: inconclusive: 14%

Cc1c(C=O)c2ccccc2n1Cc1ccccc1F
activity change, negative = inhibition [1]: inconclusive: 21.8%

CNP1(NC)=Nc2nn(-c3ccccc3)c(N)c2C(c2ccccc2)=N1
activity change, negative = inhibition [1]: inconclusive: -22.9%

CN1CCC2(CC1)C(C#N)=C(N)NC(S)=C2C#N
activity change, negative = inhibition [1]: inconclusive: -2.3%
activity change, negative = inhibition (at 46.1 µM (top of the series)): inactive: 3.79%

COc1ccccc1OCC(=O)N1CCN(Cc2ccc3c(c2)OCO3)CC1
Potency [1]: inconclusive: 0.631 µM [falling, partial curve, poor fit]

CN1CCN(c2cn[nH]c(=O)c2Cl)CC1
Potency [1]: inconclusive: 35.5 µM [falling, single point]

Oc1c(Br)cc(Br)cc1Oc1ccc(Br)cc1Br
activity change, negative = inhibition [1]: inconclusive: 8.97%

C=CCn1c(O)c(/C(C)=N/N2CCCCCC2)c(=O)[nH]c1=O
activity change, negative = inhibition [1]: inconclusive: 16.5%

COCCn1c(O)c(/C=N/NC(=O)CSC(=S)N2CCCC2)c(=O)[nH]c1=S
activity change, negative = inhibition [1]: inactive

O=[N+]([O-])c1ccc(N2CCNCC2)cc1N1CCCCCC1
Potency [1]: inconclusive: 31.6 µM [falling, single point]

O=C1NC(=O)[C@]2(Cc3ccccc3N3CCN(c4ccccc4)CC32)C(=O)N1c1ccccc1 (some centres not stated)
activity change, negative = inhibition [1]: inconclusive: 0.183%

CCCCn1c(N)c(C(=O)OCC2CCCO2)c2nc3ccccc3nc21 (configuration not stated)
Potency [1]: inconclusive: 2.31 µM [rising, partial curve, poor fit]

O=C(COc1ccc(Cl)cc1)N1CCN(C2CCCC2)CC1
activity change, negative = inhibition [1]: inconclusive: -2.36%

CCN1C(=O)C(=C2C=C(C)OC(C)=C2)C(=O)N(CC)C1=S
activity change, negative = inhibition [1]: inactive

CCOS(C)(=O)=O
activity change, negative = inhibition [1]: inactive

Cc1cccc2c1-c1sc(C(=O)Nc3ccccc3N3CCN(C)CC3)cc1CO2
Potency [1]: inconclusive: 22.4 µM [falling, partial curve]

COc1cc(C(=S)N2CCOCC2)cc(OC)c1OC(=O)Cc1ccccc1
activity change, negative = inhibition [1]: inactive

O=C(COc1ccc(Br)cc1)N1CCN(C2CCCC2)CC1
activity change, negative = inhibition [1]: inactive

CCN1C(=O)C(=C/C=C/c2ccco2)C(=O)N(CC)C1=S
activity change, negative = inhibition [1]: inactive

CC1C(=O)N(Cc2ccc(F)cc2)c2ccccc2N1C(=O)c1c(F)cccc1F (configuration not stated)
activity change, negative = inhibition [1]: inconclusive: -12.1%

Cc1c(C(=O)N2CCC3(CC2)OCCO3)sc2ncnc(N(C)c3ccccc3)c12
activity change, negative = inhibition [1]: inconclusive: -18.5%

C1=C(CCNCc2ccccc2)CCCC1
activity change, negative = inhibition [1]: inconclusive: 1.3%

Cc1ccc(-n2cc(CNC(C)Cc3cnccn3)c(-c3cccc(C)c3)n2)cc1 (configuration not stated)
Potency [1]: inconclusive: 0.316 µM [falling, full curve, poor fit]

Cc1nc2ccccc2c(=O)n1-c1ccc(Cl)cc1Cl
activity change, negative = inhibition [1]: inconclusive: 3.97%

CN(C)C(=O)Oc1noc2cc(Cl)ccc12
activity change, negative = inhibition [1]: inconclusive: 19.3%

NC(=O)CC(NC(=O)Cc1cccc2ccccc12)c1ccc(N2CCc3ccccc3C2)c([N+](=O)[O-])c1 (configuration not stated)
activity change, negative = inhibition [1]: inconclusive: -26.6%

C[C@]12CCC3C(CCC4=CC(O)CC[C@@]43/C=N/O)C1(O)CCC2C1=CC(=O)OC1 (some centres not stated)
activity change, negative = inhibition [1]: inconclusive: 6.92%

CCN1CCN(C(=O)Cc2c(C)n(C(=O)c3ccc(Cl)cc3)c3ccc(OC)cc23)CC1
Potency [1]: inconclusive: 28.2 µM [falling, single point]

CC1CN(C(=S)Nc2cccc(Cl)c2)CC(C)O1 (configuration not stated)
activity change, negative = inhibition [1]: inconclusive: 6.85%

CC1=NN(c2ccccc2)C(=O)C1/C=C1/C(=O)NC(=O)N(c2cc(C)cc(C)c2)C1=O (configuration not stated)
activity change, negative = inhibition [1]: inactive

CCCCOC(=O)C1=C(N)OC2=C(C(=O)CCC2)[C@]12C(=O)Nc1ccccc12
activity change, negative = inhibition [1]: inconclusive: -7.78%

Cc1[nH]c2ccc(OC(F)(F)F)cc2c1CCNCc1cccc([N+](=O)[O-])c1
Potency [1]: inconclusive: 25.1 µM [falling, partial curve, poor fit]

CC(=O)N1CCC2(CC1)CC(=O)c1cc(OCC(=O)N3CCN(C)CC3)ccc1O2
activity change, negative = inhibition [1]: inactive

Cn1c(O)c(/C=N/NC(=O)c2ccncc2)c(=O)n(C)c1=S
Potency [1]: inconclusive: 35.5 µM [rising, single point]

CCCCNC(=O)CN1C(=O)CN=C(c2ccccc2)c2ccccc21
activity change, negative = inhibition [1]: inconclusive: 0.926%

C[C@]12CC[C@H](O)C[C@H]1CC[C@@H]1[C@@H]2CC[C@]2(C)[C@@H](C3=CC(=O)OC3)CC[C@]12O
activity change, negative = inhibition [1]: inconclusive: 0.619%

CN(C)CC1CCCCC1OC(=O)c1ccc(Cl)c(Cl)c1 (configuration not stated)
activity change, negative = inhibition [1]: inconclusive: 0.339%

Cc1ccc(S(=O)(=O)N(C)/N=C/c2ccc(N(C)C)cc2)cc1
activity change, negative = inhibition [1]: inconclusive: 0.302%

COc1ccc(-c2cc(=Nc3cccc(C(=O)O)c3)c3cc(C)ccc3o2)cc1
activity change, negative = inhibition [1]: inconclusive: -23.7%

CC1=C(C(=O)O)N2C(=O)C(NC(=O)CCCC(=O)O)C2SC1 (configuration not stated)
Potency [1]: inconclusive: 35.5 µM [falling, single point]

CCOC(=O)C1CCN(/C=C2/C(=O)NC(=O)N(c3ccc(OCC)cc3)C2=O)CC1
activity change, negative = inhibition [1]: inactive

Cc1nn(Cc2ccccc2)c(C)c1C(=O)OCC(=O)Nc1ccccc1SCC#N
Potency [1]: inconclusive: 22.4 µM [falling, partial curve, poor fit]

CCC12CN3CCN(CC(C3)/C1=N/NC(=O)c1ccncc1)C2
activity change, negative = inhibition [1]: inactive

Cc1cccc(N2C(=O)NC(=O)/C(=C/c3cc4c(cc3[N+](=O)[O-])OCO4)C2=O)c1
Potency [1]: inconclusive: 0.316 µM [falling, full curve, poor fit]

O=C(/C=C/C=C/c1ccccc1)CC1(O)C(=O)Nc2ccccc21 (configuration not stated)
activity change, negative = inhibition [1]: inconclusive: 12.7%

C=CCn1cc(C=C2C(=O)NC(=O)NC2=O)c2ccccc21
activity change, negative = inhibition [1]: inactive

CCOC(=O)c1c(N)n(Cc2ccco2)c2nc3ccccc3nc12
activity change, negative = inhibition [1]: inconclusive: 1.45%

CCC(C)NC(=O)c1c(N)n(CCCOC)c2nc3ccccc3nc12 (configuration not stated)
activity change, negative = inhibition [1]: inconclusive: 2.12%

CCC(=NCCCn1ccnc1)c1c(O)n(Cc2ccccc2)c(=O)[nH]c1=O
activity change, negative = inhibition [1]: inconclusive: -20.4%

Cc1cc(C)cc(OCCOc2cccc(C=C3C(=O)NC(=O)NC3=O)c2)c1
Potency [1]: inconclusive: 28.2 µM [falling, single point]
